# From article PMC5007442
# Amino acid sequences for entries named in this document (tags omitted).
# UniProt P02340: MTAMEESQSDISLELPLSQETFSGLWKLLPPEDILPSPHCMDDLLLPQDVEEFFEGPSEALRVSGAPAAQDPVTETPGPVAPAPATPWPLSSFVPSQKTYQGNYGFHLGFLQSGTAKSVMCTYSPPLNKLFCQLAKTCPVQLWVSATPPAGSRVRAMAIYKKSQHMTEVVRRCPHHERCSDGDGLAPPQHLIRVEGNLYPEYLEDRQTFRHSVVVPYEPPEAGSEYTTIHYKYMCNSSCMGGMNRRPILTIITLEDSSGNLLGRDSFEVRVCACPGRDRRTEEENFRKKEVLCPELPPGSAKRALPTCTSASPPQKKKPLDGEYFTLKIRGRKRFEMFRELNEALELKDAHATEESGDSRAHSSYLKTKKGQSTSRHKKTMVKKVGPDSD
# These are yes or no findings as the source states them, for the method shown. Binding seen in cells or lysates may run through a third protein. Some entries that bind do so weakly or less than the wild type.
# How the values were obtained:
# [1] = target: endogenous p53 (mouse primary epidermal keratinocytes) (mouse (endogenous in primary epidermal keratinocytes)) (UniProt P02340); assay: co-IP; endogenous p53 immunoprecipitated from primary keratinocytes or HCT116 cells treated with CpT for the indicated time points; blot with anti-CYLD
# [2] = target: p53 expressed in HEK-293 T cells (ubiquitination experiments) (UniProt P04637); assay: co-IP; p53 immunoprecipitated (anti-p53 1C12) from transfected HEK-293 T cells treated with MG-132/CpT; lysis in IP buffer with 8 M urea, diluted to 1 M urea before the antibody; blot with anti-CYLD
binding [1],binding [2],Binder
binds,,"endogenous CYLD (mouse primary epidermal keratinocytes) (enzyme, UniProt Q80TQ2 1-952) MSSGLWSQEKVTSPYWEERIFYLLLQECSVTDKQTQKLLKVPKGSIGQYIQDRSVGHSRVPSTKGKKNQIGLKILEQPHAVLFVDEKDVVEINEKFTELLLAITNCEERLSLFRNRLRLSKGLQVDVGSPVKVQLRSGEEKFPGVVRFRGPLLAERTVSGIFFGVELLEEGRGQGFTDGVYQGKQLFQCDEDCGVFVALDKLELIEDDDNGLESDFAGPGDTMQVEPPPLEINSRVSLKVGESTESGTVIFCDVLPGKESLGYFVGVDMDNPIGNWDGRFDGVQLCSFASVESTILLHINDIIPDSVTQERRPPKLAFMSRGVGDKGSSSHNKPKVTGSTSDPGSRNRSELFYTLNGSSVDSQQSKSKNPWYIDEVAEDPAKSLTEMSSDFGHSSPPPQPPSMNSLSSENRFHSLPFSLTKMPNTNGSMAHSPLSLSVQSVMGELNSTPVQESPPLPISSGNAHGLEVGSLAEVKENPPFYGVIRWIGQPPGLSDVLAGLELEDECAGCTDGTFRGTRYFTCALKKALFVKLKSCRPDSRFASLQPVSNQIERCNSLAFGGYLSEVVEENTPPKMEKEGLEIMIGKKKGIQGHYNSCYLDSTLFCLFAFSSALDTVLLRPKEKNDIEYYSETQELLRTEIVNPLRIYGYVCATKIMKLRKILEKVEAASGFTSEEKDPEEFLNILFHDILRVEPLLKIRSAGQKVQDCNFYQIFMEKNEKVGVPTIQQLLEWSFINSNLKFAEAPSCLIIQMPRFGKDFKLFKKIFPSLELNITDLLEDTPRQCRICGGLAMYECRECYDDPDISAGKIKQFCKTCSTQVHLHPRRLNHSYHPVSLPKDLPDWDWRHGCIPCQKMELFAVLCIETSHYVAFVKYGKDDSAWLFFDSMADRDGGQNGFNIPQVTPCPEVGEYLKMSLEDLHSLDSRRIQGCARRLLCDAYMCMYQSPTMSLYK"
,binds,"CYLDR936X (enzyme, UniProt Q9NQC7 1-935) MSSGLWSQEKVTSPYWEERIFYLLLQECSVTDKQTQKLLKVPKGSIGQYIQDRSVGHSRIPSAKGKKNQIGLKILEQPHAVLFVDEKDVVEINEKFTELLLAITNCEERFSLFKNRNRLSKGLQIDVGCPVKVQLRSGEEKFPGVVRFRGPLLAERTVSGIFFGVELLEEGRGQGFTDGVYQGKQLFQCDEDCGVFVALDKLELIEDDDTALESDYAGPGDTMQVELPPLEINSRVSLKVGETIESGTVIFCDVLPGKESLGYFVGVDMDNPIGNWDGRFDGVQLCSFACVESTILLHINDIIPALSESVTQERRPPKLAFMSRGVGDKGSSSHNKPKATGSTSDPGNRNRSELFYTLNGSSVDSQPQSKSKNTWYIDEVAEDPAKSLTEISTDFDRSSPPLQPPPVNSLTTENRFHSLPFSLTKMPNTNGSIGHSPLSLSAQSVMEELNTAPVQESPPLAMPPGNSHGLEVGSLAEVKENPPFYGVIRWIGQPPGLNEVLAGLELEDECAGCTDGTFRGTRYFTCALKKALFVKLKSCRPDSRFASLQPVSNQIERCNSLAFGGYLSEVVEENTPPKMEKEGLEIMIGKKKGIQGHYNSCYLDSTLFCLFAFSSVLDTVLLRPKEKNDVEYYSETQELLRTEIVNPLRIYGYVCATKIMKLRKILEKVEAASGFTSEEKDPEEFLNILFHHILRVEPLLKIRSAGQKVQDCYFYQIFMEKNEKVGVPTIQQLLEWSFINSNLKFAEAPSCLIIQMPRFGKDFKLFKKIFPSLELNITDLLEDTPRQCRICGGLAMYECRECYDDPDISAGKIKQFCKTCNTQVHLHPKRLNHKYNPVSLPKDLPDWDWRHGCIPCQNMELFAVLCIETSHYVAFVKYGKDDSAWLFFDSMADRDGGQNGFNIPQVTPCPEVGEYLKMSLEDLHSLDSRRIQGCA"
